{"source": "patent US11793816B2", "about": "“Methods for enhancing cytotoxic cancer therapy through inhibition of ATG4B” (Northwestern University, priority 2019, dated 2023)", "key": {"[1]": {"tested_on": "intracranial GSC83 xenografts", "experiment": "Intracranial GSC83 orthotopic xenograft model (BLI, body weight, survival)", "type": "in vivo, mice", "conditions": "monotherapy"}, "[2]": {"tested_on": "intracranial PDX GBM39 tumor xenografts", "experiment": "Intracranial PDX GBM39 xenograft model (BLI, body weight, survival)", "conditions": "monotherapy"}}, "note": "For at least one compound, name, drawing or mass did not settle the structure."}
{"smiles": "Cn1nnc2c(C(N)=O)ncn2c1=O", "note": "[TMZ, temozolomide]", "values": [{"measurement": "survival analysis", "setting": "[1]", "result": "produced survival benefit"}, {"measurement": "survival analysis (growth-suppressive effects, FIG. 4E)", "setting": "[2]", "result": "resulted in growth-suppressive effects"}]}
